Assay results: PubChem BioAssay AID330 (DTP/NCI, 2004)
The list does not hold the whole screen: it gathers tests that were run many times, whatever their T/C, doses with no T/C, and many T/C values between a quarter and a half above the control. Further doses and runs are listed elsewhere. T/C gives the treated animals as a percentage of the vehicle group. Some doses have a count of surviving animals in place of a T/C: the source files T/C as zero there, which appears to mark a toxic dose or a test without result, not a measured value. Some survivor counts are full or nearly so, which does not show that the dose was tolerated: survival well below the control is almost never listed, so the zero probably covers shortened survival too. Survivors were counted at the toxicity check, usually on the fifth day, unless a day is given; later deaths do not show. Schedule codes are those of the source, taken here to give the interval after Q, in days (D) or hours (H), and the number of doses after X. Where survival is the endpoint, this PubChem deposit counts one and a half times the control or more as active, and values a quarter to a half above the control carry no call in these data; other NCI protocols may use other cut-offs. Some entries hold several experiments; the results are listed from low to high. Some T/C values are followed by the survivors on the day toxicity was checked, most often the fifth; without a count, all were alive then.

Tested on: P388 leukemia ip, CD2F1 mice, survival T/C
Assay: NCI In Vivo Anticancer Drug Screen. Data for tumor model P388 Leukemia (intraperitoneal) in CD2F1 (CDF1) mice
Details: T/C endpoint: median survival time, higher T/C = longer survival
[1] = dose: 50.0 mg/kg/injection, schedule: Q01DX009 (ip), vehicle: saline
[2] = dose: 100.0 mg/kg/injection, schedule: Q01DX009 (ip), vehicle: saline
[3] = dose: 200.0 mg/kg/injection, schedule: Q01DX009 (ip), vehicle: saline with Tween-80
[4] = dose: 240.0 mg/kg/injection, schedule: Q01DX005 (ip), vehicle: saline with Tween-80
[5] = dose: 100.0 mg/kg/injection, schedule: Q01DX005 (ip), vehicle: Klucel (hydroxypropylcellulose) (HPC)
[6] = dose: 200.0 mg/kg/injection, schedule: Q01DX005 (ip), vehicle: Klucel (hydroxypropylcellulose) (HPC)
[7] = dose: 200.0 mg/kg/injection, schedule: Q01DX005 (ip), vehicle: saline with Tween-80
[8] = dose: 400.0 mg/kg/injection, schedule: Q01DX009 (ip), vehicle: saline with Tween-80
[9] = dose: 200.0 mg/kg/injection, schedule: Q01DX009 (ip), vehicle: saline
[10] = dose: 400.0 mg/kg/injection, schedule: Q01DX001 (ip), vehicle: saline with Tween-80
[11] = dose: 50.0 mg/kg/injection, schedule: Q01DX005 (ip), vehicle: Klucel (hydroxypropylcellulose) (HPC)
[12] = dose: 200.0 mg/kg/injection, schedule: Q01DX009 (ip), vehicle: Klucel (hydroxypropylcellulose) (HPC)
[13] = dose: 100.0 mg/kg/injection, schedule: Q01DX005 (ip), vehicle: saline with Tween-80

COc1ccc2cc3cc[n+](C)cc3cc2c1OC
survivor count (dose: 50.0 mg/kg/injection, schedule: Q01DX009 (ip), vehicle: water): 3 of 6 | survivor count (dose: 100.0 mg/kg/injection, schedule: Q01DX009 (ip), vehicle: water): 0 of 6 | survivor count (dose: 200.0 mg/kg/injection, schedule: Q01DX009 (ip), vehicle: water): 0 of 6

Cc1cn(C2CC3[O][Sn]([c]4ccccc4)([c]4ccccc4)[O]CC3O2)c(=O)[nH]c1=O (configuration not stated)
T/C [1]: 130 % of control | T/C (dose: 50.0 mg/kg/injection, schedule: Q01DX009 (ip), vehicle: suspension in saline): 131 % of control | survivor count [2]: 3 of 6 | T/C (dose: 100.0 mg/kg/injection, schedule: Q01DX009 (ip), vehicle: suspension in saline): 127 % of control [5 of 6 alive] | survivor count (dose: 200.0 mg/kg/injection, schedule: Q01DX009 (ip), vehicle: suspension in saline): 3 of 6 | survivor count (dose: 400.0 mg/kg/injection, schedule: Q01DX009 (ip), vehicle: suspension in saline): 0 of 6

CC(=O)Nc1ccc(/C=C/c2ccc(N=C=S)cc2S(=O)(=O)O)c(S(=O)(=O)O)c1
survivor count [3]: 6 of 6

CCN(CC)C(=S)N1C(=O)C2C3CCC(O3)C2C1=O (configuration not stated)
survivor count (dose: 60.0 mg/kg/injection, schedule: Q01DX005 (ip), vehicle: saline with Tween-80): 5 of 6 | survivor count (dose: 120.0 mg/kg/injection, schedule: Q01DX005 (ip), vehicle: saline with Tween-80): 0 of 6 | survivor count [4]: 0 of 6

O=C1c2ccccc2C(=O)c2c(NC(=O)C(F)(F)F)cccc21
survivor count [5]: 6 of 6 | survivor count [6]: 6 of 6

O=C(O)C(O)C(O)C(=O)O.[Co+3].[NH-]CC[NH-].[NH-]CC[NH-].[NH-]CC[NH-] (configuration not stated)
survivor count [7]: 0 of 6

Cc1cccc2ncc([N+](=O)[O-])n12
T/C [3]: 129 % of control | survivor count [3]: 6 of 6 | survivor count [8]: 0 of 6

COc1ccc(CCNCC(O)c2ccc(C)s2)cc1OC (configuration not stated)
survivor count [9]: 2 of 6

Brc1ccc2nc3ccccc3c(SCCCCCCSc3c4ccccc4nc4ccc(Br)cc34)c2c1
survivor count (dose: 120.0 mg/kg/injection, schedule: Q01DX005 (ip), vehicle: Klucel (hydroxypropylcellulose) (HPC)): 6 of 6 | survivor count (dose: 240.0 mg/kg/injection, schedule: Q01DX005 (ip), vehicle: Klucel (hydroxypropylcellulose) (HPC)): 6 of 6

NC(N)=N/N=C1\C(=O)N(c2cccc([N+](=O)[O-])c2)C(=O)C1C(=O)Nc1cccc([N+](=O)[O-])c1 (configuration not stated)
survivor count [10]: 3 of 6

O=c1[nH]c(=O)n(C2CC(O)C(CO)O2)cc1S (configuration not stated)
T/C [2]: 136, 137, 138 % of control

C[OH2+].[Cl][Cu+].[Cl][Cu+].[NH-]CCC([OH2+])CC[NH-]
survivor count (dose: 12.5 mg/kg/injection, schedule: Q01DX005 (ip), vehicle: Klucel (hydroxypropylcellulose) (HPC)): 0 of 6 | survivor count (dose: 25.0 mg/kg/injection, schedule: Q01DX005 (ip), vehicle: Klucel (hydroxypropylcellulose) (HPC)): 0 of 6 | survivor count [11]: 0 of 6 | survivor count [5]: 0 of 6 | survivor count [6]: 0 of 6

Cc1ccc(S(=O)(=O)NN=C2C(C)C(c3ccccc3)NC(c3ccccc3)C2C)cc1 (configuration not stated)
survivor count (dose: 50.0 mg/kg/injection, schedule: Q01DX001 (ip), vehicle: Klucel (hydroxypropylcellulose) (HPC)): 6 of 6 | survivor count (dose: 100.0 mg/kg/injection, schedule: Q01DX001 (ip), vehicle: Klucel (hydroxypropylcellulose) (HPC)): 6 of 6

CCCCCCC(=O)/C=C/c1ccccc1OCOC
T/C [12]: 129 % of control

COc1cc2c(cc1OC)-c1c(C)c3ccc(OC)c(NCc4ccccc4)c3c[n+]1CC2
survivor count (dose: 50.0 mg/kg/injection, schedule: Q04DX003 (ip), vehicle: other): 0 of 6 | survivor count (dose: 100.0 mg/kg/injection, schedule: Q04DX003 (ip), vehicle: other): 0 of 6 | survivor count (dose: 200.0 mg/kg/injection, schedule: Q04DX003 (ip), vehicle: other): 0 of 6 | survivor count (dose: 400.0 mg/kg/injection, schedule: Q04DX003 (ip), vehicle: other): 0 of 6

NNC(=O)C(NC=O)C(N)=O (configuration not stated)
survivor count [2]: 6 of 6

COc1ccc(CC2C(=O)NC(C)C(=O)N(C)C3C(=O)N(C)C(Cc4ccc(O)c(c4)Oc4ccc(cc4)C3O)C(=O)NC(C)C(=O)NC(C)C(=O)N2C)cc1 (configuration not stated) (tested in a mixture with another compound)
T/C (dose: 0.12 mg/kg/injection, schedule: Q01DX009 (ip), vehicle: Klucel (hydroxypropylcellulose) (HPC)): 145 % of control | T/C (dose: 0.25 mg/kg/injection, schedule: Q01DX009 (ip), vehicle: Klucel (hydroxypropylcellulose) (HPC)): 139 % of control | T/C (dose: 0.5 mg/kg/injection, schedule: Q01DX009 (ip), vehicle: Klucel (hydroxypropylcellulose) (HPC)): 149 % of control | T/C (dose: 125.0 micrograms/kg/injection, schedule: Q01DX009 (ip), vehicle: saline): 132 % of control | T/C (dose: 2000.0 micrograms/kg/injection, schedule: Q01DX009 (ip), vehicle: saline): 144 % of control | survivor count (dose: 4000.0 micrograms/kg/injection, schedule: Q01DX009 (ip), vehicle: saline): 6 of 10

Cc1c2c(cc3c1[nH]c1ccccc13)C(=O)c1ccccc1C2=O
survivor count [13]: 5 of 5

CCN(CC)CCN=c1nc(/C=C\C=C\NN(C)C(=S)SC)c(C)nn1C
survivor count (dose: 50.0 mg/kg/injection, schedule: Q01DX005 (ip), vehicle: saline with Tween-80): 5 of 5 | survivor count [13]: 5 of 5

CC(C)Cc1cc(C(F)(F)F)nc(NNc2nc(CC(C)C)cc(C(F)(F)F)n2)n1
survivor count [12]: 6 of 6

CC1CCCN(CC(O)CN2C[C@@H](C)N(CC(O)CN3CCCC(C)C3)[C@H](C)C2)C1 (some centres not stated)
survivor count [13]: 2 of 6 | survivor count [7]: 0 of 6

CC(Cc1ccc(O)cc1)NCC(O)c1cc(O)cc(O)c1 (configuration not stated)
T/C [2]: 140 % of control

N#C/C(=C\c1ccccc1)CN1CCCCC1
survivor count [10]: 0 of 6

COc1ccc2ncc(COC(=O)NCCCl)c(COC(=O)NCCCl)c2c1
survivor count [11]: 6 of 6

CCCCCCCCN1CCOCCOCCN(CCCCCCCC)c2nc(Cl)nc(n2)NCCOCCOCCNc2nc(Cl)nc1n2
survivor count [4]: 6 of 6

CC[C@@H]1CN2CCc3c([nH]c4ccccc34)[C@@](C(=O)OC)(c3cc4c(cc3OC)N(C)[C@H]3[C@@](O)(C(=O)OC)[C@H](OC(C)=O)[C@]5(CC)C=CCN6CC[C@]43[C@@H]65)C[C@H](C2)C1=O
T/C (dose: 8.0 mg/kg/injection, schedule: Q01DX001 (ip), vehicle: water): 126 % of control | T/C (dose: 16.0 mg/kg/injection, schedule: Q01DX001 (ip), vehicle: water): 126 % of control | T/C (dose: 32.0 mg/kg/injection, schedule: Q01DX001 (ip), vehicle: distilled water + Tween-80): 128 % of control [5 of 6 alive] | T/C (dose: 32.0 mg/kg/injection, schedule: Q01DX001 (ip), vehicle: water): 145 % of control | survivor count (dose: 64.0 mg/kg/injection, schedule: Q01DX001 (ip), vehicle: distilled water + Tween-80): 0 of 6 | survivor count (dose: 128.0 mg/kg/injection, schedule: Q01DX001 (ip), vehicle: distilled water + Tween-80): 0 of 6

CCN(CC)Cc1cc(N=Nc2cc(OC)c(N=Nc3ccc([N+](=O)[O-])cc3)cc2OC)c2cccnc2c1O
T/C [6]: 128 % of control

COC(=O)c1nc(=S)[nH]c(C(=O)OC)c1C(=O)c1ccc(O)cc1O
survivor count [4]: 2 of 6

Cc1cc(N(CCCl)CCCl)ccc1C=Nc1ccccc1C(=O)O
T/C (dose: 100.0 mg/kg/injection, schedule: Q01DX009 (ip), vehicle: saline with Tween-80): 128 % of control | survivor count [8]: 5 of 6

CCOC(=O)N1CCc2[nH]oc(=O)c2CC1
survivor count (dose: 25.0 mg/kg/injection, schedule: Q01DX009 (ip), vehicle: saline): 1 of 6 | survivor count [1]: 0 of 6 | survivor count [2]: 0 of 6 | survivor count [9]: 0 of 6
